Data from PubChem BioAssay AID1347076 (National Center for Advancing Translational Sciences (NCATS), 2019).
About 13,000 (3.2%) of roughly 400,000 compounds were called active. Inconclusive means that the source gave no clear call. Such entries were picked first, then a sample of the others. Calls follow the shape of the dose curve; as a rule, active = well fitted cell-killing curve with a large enough effect; inconclusive = small, poorly fitted or top-dose-only effect, or effect the other way; inactive = flat fitted curve, though single readings scatter. Potencies beside an inconclusive call are fits to weak or partial responses and may not hold up.

Experiment: qHTS assay for MDR1-selective chemotherapeutics: Primary screen using the drug-selected MDR subline cells KB-V1; also: nearly all actives have a fitted effect of over 60% in size
Conditions: KB-V1 MDR cells viability, CellTiter-Glo, 72 h; activity change, negative = cytotoxicity: at 46.1 µM (top of the series)
How it was run: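 Cells of the MDR subline KB-V1 are plated, dosed with compound at multiple concentrations, and incubated 72 h at 37 degrees C; CellTiter-Glo is then added and luminescence read after 10 min.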
% is scaled to controls: 0 for no effect and ±100 for the full control effect; potency is read from the fitted curve at half-maximal effect.

Question: For `O=c1c2sc3ccccc3c2n(Cc2ccc(Cl)cc2)c(=O)n1Cc1ccco1`, which “activity change, negative = cytotoxicity” value is on record?
Answer: inactive: 43.9%

Question: With `Cc1ccc(NC(=O)CCc2nc3cccnc3n2-c2ccccc2)cc1Cl` as the molecule, how does the “activity change, negative = cytotoxicity” value read?
Answer: inactive: -8.89%

Question: Which “activity change, negative = cytotoxicity” value does the source give for `COc1ccc(Cl)cc1S(=O)(=O)N1CCC(C(=O)NC2CCCC2)CC1` here?
Answer: inactive: 0%

Question: For `CCC(C)N(C(=O)c1csnn1)C(C(=O)NC1CCCC1)c1ccc(F)cc1` (centres undefined), which Potency is on record?
Answer: inconclusive: 13 µM [cytotoxic, partial curve]

Question: With `O=C(CCCn1cncn1)N1CCCC(N2CCN(c3ccccc3F)CC2)C1` (centres undefined) as the molecule, how does the “activity change, negative = cytotoxicity” value read?
Answer: inactive: 11.6%

Question: Which “activity change, negative = cytotoxicity” value does the source give for `CC(C)Cn1c(=O)c2ccccc2n2c(CCC(=O)NC3CCN(Cc4ccccc4)CC3)nnc12` here?
Answer: inactive: -8.33%

Question: For `Fc1ccc(-c2cc3nc(-c4ccccc4)cc(N4CCN(CCN5CCOCC5)CC4)n3n2)cc1`, which Potency is on record?
Answer: inconclusive: 25.9 µM [cytotoxic, single point]

Question: For `CC(Sc1nc2cc([N+](=O)[O-])ccc2n1-c1ccc(F)cc1)C(=O)NCc1ccc2c(c1)OCO2` (centres undefined), which Potency is on record?
Answer: active: 5.8 µM

Question: With `Cc1ccc(-n2c(SCC(=O)OC(C)C)nnc2-c2ccccn2)cc1` as the molecule, how does the Potency read?
Answer: active: 20.6 µM

Question: For `Cc1c2cnn(-c3ccccc3)c(=O)c2c(C)n1CCCC(=O)NCCN1CCN(C)CC1`, which Potency is on record?
Answer: inconclusive: 29.1 µM [rising, single point]

Question: For `CCOC(=O)N1CCN(C(=O)CN(C2CCCCC2)S(=O)(=O)c2c(C)cc(C)cc2C)CC1`, which Potency is on record?
Answer: inconclusive: 2.82 µM [cytotoxic, partial curve, poor fit]

Question: Which Potency does the source give for `COc1cccc(Cn2c(-c3cccs3)noc2=O)c1` here?
Answer: inconclusive: 20.6 µM [cytotoxic, partial curve, poor fit]

Question: Which Potency does the source give for `O=C(NCc1ccccc1)c1cccc(OCC(=O)N2CCN(C(=O)c3ccco3)CC2)c1` here?
Answer: inconclusive: 18.4 µM [cytotoxic, single point]

Question: For `Cc1cc([N+](=O)[O-])nn1CC(=O)Nc1cnc2ccccc2c1`, which Potency is on record?
Answer: inconclusive: 20.6 µM [cytotoxic, partial curve, poor fit]

Question: For `CCOc1ccc(C(=O)NCC(=O)NCC(c2ccco2)N2CCCCC2)cc1` (centres undefined), which Potency is on record?
Answer: inconclusive: 16.4 µM [cytotoxic, single point]

Question: With `CCC1C(=O)N=C(SCC(=O)Nc2ccc(Br)cn2)NC1=O` (centres undefined) as the molecule, how does the Potency read?
Answer: inconclusive: 23.1 µM [rising, single point]

Question: For `CCOC(=O)Cn1c(-c2cccnc2Cl)nc2cc(C)c(C)cc21`, which “activity change, negative = cytotoxicity” value is on record?
Answer: inactive: -16.7%

Question: For `O=C(NCc1ccco1)c1ccc(COc2cccc3ccccc23)cc1`, which Potency is on record?
Answer: active: 20.6 µM

Question: For `CCOC(=O)[C@]12CCCC=C1N(CCC1=CCCCC1)C(=O)[C@H](CC(=O)NCCCCc1ccccc1)C2`, which Potency is on record?
Answer: inconclusive: 8.2 µM [cytotoxic, partial curve]

Question: With `Clc1cccc(-n2ncc3c(NC4CCCCCC4)ncnc32)c1` as the molecule, how does the “activity change, negative = cytotoxicity” value read?
Answer: inactive: -11.8%

Question: For `COc1ccc(NC(=O)C2(C)Cc3c(-c4ccc(N(C)C)cc4)ccnc3O2)cc1OC` (centres undefined), which “activity change, negative = cytotoxicity” value is on record?
Answer: inactive: 0%

Question: Which “activity change, negative = cytotoxicity” value does the source give for `CCOCCc1nn2c(=O)cc(COC(=O)c3ccccc3NC(=O)c3ccc(C)cc3)nc2s1` here?
Answer: inactive: -0.659%

Question: For `Cc1ccc(NC(=O)CSc2nc(N)c3cc4c(nc3n2)CCCC4)cc1`, which Potency is on record?
Answer: inconclusive: 20.6 µM [cytotoxic, single point]

Question: Which Potency does the source give for `CNC(=O)CN1C(=O)NC2(CCc3ccccc32)C1=O` (centres undefined) here?
Answer: inconclusive: 29.1 µM [rising, single point]

Question: For `O=C1C2CCCCN2C(=O)N1CCN1CCN(c2ccc([N+](=O)[O-])cc2)CC1` (centres undefined), which Potency is on record?
Answer: inconclusive: 4.61 µM [cytotoxic, full curve]

Question: Which Potency does the source give for `CC(C(=O)N1CCN(c2ccccc2)CC1)N1C(=O)C2CC=CCC2C1=O` (centres undefined) here?
Answer: inconclusive: 10.3 µM [cytotoxic, partial curve, poor fit]

Question: Which Potency does the source give for `Nc1cccc(-c2ccc(CO)o2)c1` here?
Answer: inconclusive: 20.6 µM [rising, single point]

Question: With `CCOC(=O)C1CCN(C(=O)c2cccc(NC(=O)C(CC)CC)c2)CC1` as the molecule, how does the Potency read?
Answer: inconclusive: 25.9 µM [cytotoxic, single point]

Question: With `COC(=O)CSc1nc2ccccc2n1CC(=O)N(C(C)C)C(C)C` as the molecule, how does the Potency read?
Answer: inconclusive: 18.4 µM [cytotoxic, single point]

Question: With `COc1ccccc1N1CC(C)C(=O)NC1=S` (centres undefined) as the molecule, how does the “activity change, negative = cytotoxicity” value read?
Answer: inactive: 2.99%

Question: For `COc1cc(OC)c(N(C)S(=O)(=O)c2cccc(C(=O)OCc3c(C)noc3C)c2)cc1Cl`, which Potency is on record?
Answer: inconclusive: 5.8 µM [cytotoxic, partial curve, poor fit]

Question: Which Potency does the source give for `Cc1ccc2nc3c(c(Nc4ccc(C)c(C)c4)c2c1)CCC3` here?
Answer: active: 18.4 µM

Question: With `CCC1CCCCN1C(=O)COc1ccc(N(C)S(=O)(=O)c2ccc(C)cc2)cc1` (centres undefined) as the molecule, how does the Potency read?
Answer: inconclusive: 2.31 µM [cytotoxic, full curve]

Question: For `CC1(C)Cc2ccccc2C(N/N=C/c2cccc(F)c2)=N1`, which Potency is on record?
Answer: inconclusive: 23.1 µM [cytotoxic, partial curve, poor fit]

Question: Which “activity change, negative = cytotoxicity” value does the source give for `Brc1cccc(-c2nnn3c2nc(N2CCCCC2)c2ccccc23)c1` here?
Answer: inactive: 0%

Question: With `CCCN1CCC(=NNc2ccc(S(=O)(=O)N3CCOCC3)cc2[N+](=O)[O-])CC1` as the molecule, how does the Potency read?
Answer: active: 7.31 µM

Question: With `CCN(CC(=O)Nc1c(F)cccc1F)C(=O)Cc1csc(-c2ccccc2)n1` as the molecule, how does the Potency read?
Answer: inconclusive: 20.6 µM [cytotoxic, single point]

Question: For `Cc1ccc(C)c(N2CCN(S(=O)(=O)c3ccc4c(c3)NC(=O)CO4)CC2)c1`, which Potency is on record?
Answer: inconclusive: 29.1 µM [cytotoxic, single point]

Question: With `COC(=O)c1cc(C(=O)Nc2nnc(CC(C)C)s2)cc([N+](=O)[O-])c1` as the molecule, how does the Potency read?
Answer: inconclusive: 20.6 µM [cytotoxic, partial curve, poor fit]

Question: For `O=C(Nc1ccccc1C(=O)N1CCCCC1)c1ccc(Cl)cc1Cl`, which Potency is on record?
Answer: inconclusive: 7.31 µM [cytotoxic, partial curve]

Question: With `O=C(CNS(=O)(=O)c1cccs1)N1CCN(c2ccccc2F)CC1` as the molecule, how does the Potency read?
Answer: inconclusive: 3.26 µM [cytotoxic, full curve, poor fit]

Question: Which “activity change, negative = cytotoxicity” value does the source give for `CC(C)C1(C)NC(c2ccc3c(c2)OCO3)=CC(c2ccccc2O)N1` (centres undefined) here?
Answer: inactive: -1.85%

Question: With `O=C(NCC(=O)N1CCN(c2ccccc2O)CC1)c1ccc2c(c1)OCO2` as the molecule, how does the “activity change, negative = cytotoxicity” value read?
Answer: inactive: 4.91%

Question: For `COc1ccc(CCn2ccc(O)c(Cc3ccc(Cl)cc3Cl)c2=O)cc1OC`, which Potency is on record?
Answer: inconclusive: 29.1 µM [cytotoxic, single point]

Question: Which “activity change, negative = cytotoxicity” value does the source give for `Cc1cccn2c(=O)c(C(=O)N3CCN(c4ccc(Cl)cc4)CC3)cnc12` here?
Answer: inactive: -4.6%

Question: For `O=C(COC(=O)c1nc(Cl)ccc1Cl)NCCc1ccccc1`, which Potency is on record?
Answer: inconclusive: 29.1 µM [rising, single point]

Question: Which Potency does the source give for `Cc1cc(=O)oc2cc(OCC(=O)OCC(=O)NC3CC3)ccc12` here?
Answer: inconclusive: 0.461 µM [rising, partial curve, poor fit]

Question: Which Potency does the source give for `Cc1ccc(S(=O)(=O)/N=c2\scc(C)n2C)cc1` here?
Answer: inconclusive: 0.231 µM [cytotoxic, full curve]

Question: For `COc1ccc(-c2csc(C(O)c3ccccc3)n2)cn1` (centres undefined), which “activity change, negative = cytotoxicity” value is on record?
Answer: inactive: 1.08%

Question: Which Potency does the source give for `CCN(CC(=O)c1c(N)n(C)c(=O)n(C)c1=O)c1cccc2ccccc12` here?
Answer: inconclusive: 14.6 µM [cytotoxic, partial curve]

Question: Which Potency does the source give for `CCCCC[C@@H]1CCCCC[C@H](O)C[C@@H](O)[C@@H](O)/C=C/C(=O)O1` here?
Answer: inconclusive: 4.61 µM [rising, full curve, poor fit]

Question: With `O=C(CSc1ccccn1)N/N=C/C=C/c1ccccc1` as the molecule, how does the “activity change, negative = cytotoxicity” value read?
Answer: inactive: 12.9%

Question: With `O=C(Nc1ccc(N2CCOCC2)cc1N1CCOCC1)c1ccc([N+](=O)[O-])cc1Cl` as the molecule, how does the Potency read?
Answer: inconclusive: 23.1 µM [cytotoxic, single point]

Question: For `CCOC(=O)/C=c1\s/c(=C\c2ccccc2C)c(=O)n1CC(=O)NCc1ccc2c(c1)OCO2`, which Potency is on record?
Answer: active: 3.26 µM

Question: With `CCOC(=O)c1c(NC(=O)c2cc3n(n2)C(C(F)(F)F)CC(c2cccs2)N3)sc(C)c1C` (centres undefined) as the molecule, how does the Potency read?
Answer: inconclusive: 23.1 µM [cytotoxic, single point]

Question: With `CN(C)c1ccc(CNC(=O)c2ccc(CNc3c(N4CCCCC4)c(=O)c3=O)cc2)cc1` as the molecule, how does the Potency read?
Answer: inconclusive: 9.2 µM [rising, partial curve, poor fit]

Question: With `CC/C(=N\NC(=O)c1ccc(CN(C)S(=O)(=O)c2ccc(C)cc2)cc1)c1ccc(OC(F)F)cc1` as the molecule, how does the Potency read?
Answer: active: 14.6 µM

Question: With `CC(C)c1nnc(NC(=O)C2CCN(S(=O)(=O)c3ccc(-n4cnnn4)cc3)CC2)s1` as the molecule, how does the “activity change, negative = cytotoxicity” value read?
Answer: inactive: -13.9%

Question: For `Cc1cccc(NC(=O)c2ccc(C)c(S(=O)(=O)N3CCCCC3)c2)n1`, which Potency is on record?
Answer: inconclusive: 5.8 µM [cytotoxic, full curve]

Question: For `COC(=O)c1sccc1NC(=O)Nc1cccc(OC)c1`, which Potency is on record?
Answer: inconclusive: 18.4 µM [rising, single point]

Question: Which Potency does the source give for `Cc1nn(-c2ccccc2)c(C)c1NC(=O)COC(=O)c1ccc(S(=O)(=O)C(F)F)cc1` here?
Answer: inconclusive: 29.1 µM [rising, single point]

Question: Which Potency does the source give for `CC1CCc2nc3ccc(S(=O)(=O)N4CCC(C(=O)O)CC4)cc3c(C(=O)O)c2C1` (centres undefined) here?
Answer: inconclusive: 29.1 µM [rising, single point]

Question: With `CC1(C(=O)NS(=O)(=O)c2ccccc2Cl)CCN1C(=O)C1CCCCC1` (centres undefined) as the molecule, how does the “activity change, negative = cytotoxicity” value read?
Answer: inactive: 3.98%

Question: For `CC(C)c1ccc(S(=O)(=O)Nc2ccc(N3CCOCC3)cc2)cc1`, which “activity change, negative = cytotoxicity” value is on record?
Answer: inactive: -21.6%

Question: For `CCOc1ccc(NC(=O)c2ccc(OC)cc2)cc1`, which Potency is on record?
Answer: inconclusive: 20.6 µM [cytotoxic, partial curve]

Question: For `O=S(=O)(Nc1cccc2ccccc12)c1ccccc1`, which “activity change, negative = cytotoxicity” value is on record?
Answer: inactive: 0%

Question: For `Cn1nc(-c2ccc(C(=O)NCC3CCCO3)cc2)c2ccccc2c1=O` (centres undefined), which “activity change, negative = cytotoxicity” value is on record?
Answer: inactive: 0%

Question: With `CCOC(=O)[C@]12CCC=C1N(Cc1cccc3ccccc13)C(=O)[C@H](CC(=O)N1CCN(C(=O)C3CC3)CC1)C2` as the molecule, how does the Potency read?
Answer: inconclusive: 5.8 µM [cytotoxic, partial curve]

Question: Which Potency does the source give for `O=C(c1cn(-c2ccccc2)nc1-c1cccs1)N1CCN(c2ccccc2)CC1` here?
Answer: inconclusive: 20.6 µM [cytotoxic, partial curve, poor fit]
